Record: PubChem BioAssay AID602203 (INSERM, 2012)
Test: 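Genes whose knock-down alters cisplatin killing of lung cancer cells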 (follow-up of hits). Cells: human A549 lung cancer cells. Reagents: siRNA pair against human genes. Treatment: cisplatin at a dose killing half of control-siRNA cells, given 48 h after transfection. Measured: 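Two siRNAs per gene scored +1 protective, -1 sensitizing, 0 if toxic by LDH or growth-reducing by WST-1; cisplatin given 48 h later at 50% control kill; scores summed, mean death shift versus control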. Direction: summed siRNA score for cisplatin death: higher = more siRNAs reduced cisplatin-induced cell death; change in cisplatin death versus control: higher = fewer cells died than in control. Active means: In these data the active calls have summed siRNA score for cisplatin death at about -3 or lower, or at about 3 or higher.
In all, the deposit lists 999 reagents; below is a random part of them. Over the whole deposit, 85 (8.5%) are marked active. 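Unclear how single-siRNA scores of -1, 0 or +1 give the printed -4 to 4 range; calls lie near -3 or 3 and beyond.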 The record does not give: the amount of reagent, the time to read-out, the dose of the treatment.

Gene | summed siRNA score for cisplatin death | change in cisplatin death versus control (percentage points) | Call
CFAP410 | 3 | 8.74 | active
AMPD1 | 2 | – | inactive
TRIM33 | 1 | – | inactive
SLF2 | -1 | – | inactive
INS | -1 | – | inactive
NLRP1 | -3 | -8.13 | active
LOC387742 | 2 | – | inactive
DHX58 | 0 | – | inactive
EGR3 | 1 | – | inactive
FLJ41327 (retired record) | 1 | – | inactive
USP8 | -3 | -13.6 | active
LINC00921 | 1 | – | inactive
STK11 | 2 | – | inactive
LOC440029 | 0 | – | inactive
LOC342972 | 3 | 13.1 | active
OGFRP1 | 1 | – | inactive
USP32P2 | 0 | – | inactive
HAPLN1 | 2 | – | inactive
KRT5 | 0 | – | inactive
PAFAH1B3 | 1 | – | inactive
ABCA8 | -2 | – | inactive
EPM2A | 0 | – | inactive
LOC401676 (retired record) | -1 | – | inactive
MGC13275 | -1 | – | inactive
PLA2G10 | -1 | – | inactive
DHRS11 | 0 | – | inactive
PRMT8 | 0 | – | inactive
CHP1 | 1 | – | inactive
C10orf55 | 1 | – | inactive
JARID2 | 0 | – | inactive
NCR3LG1 | 0 | – | inactive
LOC440669 | 2 | – | inactive
ARHGAP35 | 3 | 11.6 | active
LOC390245 | 0 | – | inactive
SCAF4 | 1 | – | inactive
DDOST | 1 | – | inactive
LOC391528 | 0 | – | inactive
RIOX1 | 0 | – | inactive
IRF2 | 1 | – | inactive
TRHDE | 0 | – | inactive
PPM1J | -3 | -8.13 | active
DNM1P5 | 0 | – | inactive
PNKP | 1 | – | inactive
LOC392358 | 1 | – | inactive
ITPKB | 0 | – | inactive
OVCH1 | 3 | 16.2 | active
BMPR1B | 0 | – | inactive
ARFIP2 | -1 | – | inactive
ETF1 | 1 | – | inactive
LOC441740 | 1 | – | inactive
TMEM35A | 1 | – | inactive
LOC441137 | 2 | – | inactive
LOC440056 | 3 | 12.5 | active
CNTRL | -1 | – | inactive
BPIFB1 | -1 | – | inactive
MMP9 | -1 | – | inactive
PPARD | 0 | – | inactive
LOC441900 | -1 | – | inactive
CCT8 | -1 | – | inactive
NUP62 | 0 | – | inactive
LETM1 | -2 | – | inactive
FREM2 | 1 | – | inactive
ESM1 | 0 | – | inactive
TBC1D23 | -2 | – | inactive
DUX4L8 | 0 | – | inactive
PRSS8 | -1 | – | inactive
LOC441641 | 1 | – | inactive
ARG99 | 1 | – | inactive
PIM2 | 0 | – | inactive
GPHRB | -1 | – | inactive
BAZ1A | 1 | – | inactive
LOC139189 | 0 | – | inactive
BTNL2 | -3 | -12.6 | active
IFNA21 | 0 | – | inactive
HSFY2 | -1 | – | inactive
DLEU2 | 0 | – | inactive
DAGLA | 2 | – | inactive
H3C7 | 1 | – | inactive
KLF8 | 2 | – | inactive
LOC130865 | 0 | – | inactive
SWI5 | 1 | – | inactive
C19orf73 | 1 | – | inactive
LOC441646 | 0 | – | inactive
PIK3C2B | -1 | – | inactive
KRT18P55 | 1 | – | inactive
EMP3 | 1 | – | inactive
NUAK2 | 1 | – | inactive
MUC6 | 0 | – | inactive
TMPRSS3 | 1 | – | inactive
LOC390992 | -2 | – | inactive
LOC401357 | 0 | – | inactive
BST1 | -2 | – | inactive
H1-5 | 0 | – | inactive
DKK1 | -2 | – | inactive
RBL1 | 0 | – | inactive
IVL | 0 | – | inactive
CACNA1H | -1 | – | inactive
GLIPR1L1 | 2 | – | inactive
CFAP54 | 1 | – | inactive
TTC4 | -1 | – | inactive
IL32 | -1 | – | inactive
BRIP1 | 1 | – | inactive
LTA | -2 | – | inactive
PLD3 | -3 | -10.8 | active
GLA | -2 | – | inactive
SNX13 | -1 | – | inactive

Just “summed siRNA score for cisplatin death”, for 16 of the entries above:
TMEM35A	1
LOC441137	2
LOC440056	3
CNTRL	-1
BPIFB1	-1
MMP9	-1
PPARD	0
LOC441900	-1
CCT8	-1
NUP62	0
LETM1	-2
FREM2	1
ESM1	0
TBC1D23	-2
DUX4L8	0
PRSS8	-1
